Measurements published in patent US9119805B2, “Therapy and prevention of problem drinking” (THE UNIVERSITY OF SYDNEY, priority 2009, dated 2015).

Experiments:
[1] = system: alcohol-dependent adults and non-dependent problem drinkers; experiment: Human Study 1: intranasal oxytocin, stress and alcohol-related cues; format: in vivo; conditions: versus placebo
Method: The underlying mechanisms of intranasal oxytocin during exposure to stress and alcohol related cues in adult alcohol-dependent and adult non-dependent problem drinkers are determined.
In particular, at least twenty male and female adults reporting alcohol dependence according to the Diagnostic and Statistical Manual of Mental Disorders, Fourth Edition (DSM-IV) as determined by the Structured Clinical Interview for the DSM-IV (SCID-IV) are recruited from the community to participate in a laboratory based investigation on the role of oxytocin in stress-related alcohol craving. All alcohol-dependent participants have a current diagnosis of alcohol dependence according to the SCID-IV, score higher than 8 on the Alcohol Use Disorders Identification Test (AUDIT), and score at least 10 on the Impaired Control Questionnaire (ICQ).
An additional twenty male and female non-dependent adults are recruited that score higher than 8 on the Alcohol Use Disorders Identification Test (AUDIT).
Recruited subjects are administered placebo or oxytocin intranasally (80 IU per day: 40 IU at 9:00 am and 40 IU at 9:00 pm) over a period of 7 days, following completion of baseline measurements. Subjects are instructed on self-administration procedures. Drug administration commences on the evening of the day of the clinical and medical interview and ceases on a morning one-week later, after 14 doses have been administered. Subjects are randomized to oxytocin-receiving or placebo-receiving groups, and the groups are stratified according to gender, age, and drinking behavior.
Subjects returning to the Brain and Mind Research Institute on the afternoon of the final day of testing are evaluated. Bloods and saliva are taken, and plasma oxytocin and cortisol levels and saliva cortisol are determined and compared to baseline levels before commencement of therapy. A urine toxicology test and alcohol breathalyzer test are also performed, to determine whether subjects have been alcohol-free and drug-free at the time of testing. Subjects are tested according to DASS-21, PANAS, 7-day TLFB, and AUQ, and neuropsychological evaluations e.g., according to CANTAB are performed. Changes in mood, drinking behavior and neuropsychology are evaluated for both groups by comparison with baseline evaluations. Changes in smoking behavior are evaluated by FTND testing and comparison with baseline evaluations. HR and BP records over the period and at cessation are also determined and compared to baseline levels before commencement of therapy.
Subjects also perform an impromptu speech task that is known to induce anxiety, to confirm the anxiolytic action of oxytocin therapy. In particular, subjects deliver a 5-minute speech on a widely-publicized topic familiar to most people e.g., climate change, which they have been misinformed previously is to be delivered by teleconference to a live audience. […] To assess changes in affect, alcohol craving, and physiology following the speech task, participants are subjected to a second round of PANAS, AUQ, and saliva cortisol testing, and their heart rates and blood pressures are determined.
Following the speech task, participants are presented with alcohol-related cues. […] Following exposure to the alcohol cues, participants are subjected to a third round of PANAS, AUQ, and saliva cortisol testing, and their heart rates and blood pressures are determined. […]

[2] = system: alcohol-dependent adults and non-dependent problem drinkers; experiment: Human Study 2: intranasal oxytocin, alcohol self-administration; format: in vivo; conditions: intranasal 80 IU per day for 7 days, versus placebo
Method: In a second clinical study in humans, the effect(s) of intranasal oxytocin therapy on alcohol self-administration are determined in a population of alcohol-dependent adults and in a population of non-dependent problem drinkers.
At least forty male and female adults are recruited from the community to the Brain and Mind Research Institute (BMRI) to participate in a laboratory based investigation looking at the impact of oxytocin on alcohol craving. Participants have a current diagnosis of alcohol dependence according to the Diagnostic and Statistical Manual of Mental Disorders, Fourth Edition (DSM-IV) as determined by the Structured Clinical Interview for the DSM-IV (SCID-IV) or are non-dependent subjects scoring higher than 8 on AUDIT. Male and female participants are chronic hazardous drinkers consuming more than 20 (females) or 25 (males) standard drinks per week (i.e., females: more than 200 g alcohol per week; males more than 250 g alcohol per week), respectively, and have not been abstinent more than 3 days per week in the 30 days preceding commencement of the trial as determined by AUDIT. […]
Subjects returning to the BMRI on the afternoon of the final day of testing are evaluated. […] Changes in mood, drinking behavior and neuropsychology are evaluated for both groups by comparison with baseline evaluations. […]

[3] = during presentation of stress and alcohol cues
[4] = intranasal 80 IU per day for 7 days

With `CC[C@H](C)[C@@H]1NC(=O)[C@H](Cc2ccc(O)cc2)NC(=O)[C@@H](N)CSSC[C@@H](C(=O)N2CCC[C@H]2C(=O)N[C@@H](CC(C)C)C(=O)NCC(N)=O)NC(=O)[C@H](CC(N)=O)NC(=O)[C@H](CCC(N)=O)NC1=O` [oxytocin] the arterial blood pressure [1, 3] was “lower”, the heart rate [1, 3] was “lower” and the salivary cortisol [1, 3] was “lower”. The plasma cortisol levels [1, 4] was “lower”, the plasma oxytocin [1, 4] was “higher” and the plasma cortisol levels [2] was “lower”. For the same molecule, the plasma oxytocin levels [2] was “higher”.
